Test results as given in paper PMC3166894.
These are yes or no findings as the source states them, for the method shown. In cells and extracts the contact can be indirect. Some results given as binding are weak or reduced against the parent protein; the word gives no strength.

The chains behind the UniProt entries cited, without tags or fusion partners.
UniProt P35346: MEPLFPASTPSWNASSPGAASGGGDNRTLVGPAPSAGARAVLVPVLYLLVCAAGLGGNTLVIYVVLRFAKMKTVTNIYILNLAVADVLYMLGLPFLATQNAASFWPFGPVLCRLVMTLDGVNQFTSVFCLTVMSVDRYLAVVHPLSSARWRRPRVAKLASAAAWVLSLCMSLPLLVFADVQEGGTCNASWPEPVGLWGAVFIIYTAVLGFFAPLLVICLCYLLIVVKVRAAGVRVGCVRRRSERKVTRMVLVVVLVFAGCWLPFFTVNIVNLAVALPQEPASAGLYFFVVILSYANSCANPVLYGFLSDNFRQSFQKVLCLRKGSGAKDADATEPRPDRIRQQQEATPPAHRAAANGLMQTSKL

How the values were obtained:
[1] = target: cMyc-tagged β2-adrenergic receptor (UniProt P07550); assay: FRET or BRET; photobleaching FRET with directly labeled HA- and cMyc- antibodies (data not shown); basal or combined agonists
[2] = target: cMyc-tagged β2-adrenergic receptor (UniProt P07550); assay: co-IP; membrane protein (250 μg) of cotransfected HEK-293 cells solubilised in RIPA buffer; immunoprecipitated for cMyc-β2AR, blotted with anti-HA; control cells and cells treated with SST (1 μM) and formoterol (1 μM) alone or in combination, 30 min, 37°C

How did the binding [1] turn out when “HA-tagged human somatostatin receptor 5 (from UniProt P35346 1-364)” was run?
Its binding is “binds”.

And the binding [2]?
Its binding is “binds”.
